Source: article PMC3460628
Results are given in words; binding and its absence hold for the method and conditions named. Some binding calls cover weakened binding; strength is not graded here.

The chains behind the UniProt entries cited, without tags or fusion partners. Residues count along the entry.
UniProt Q07737, residues 71-278: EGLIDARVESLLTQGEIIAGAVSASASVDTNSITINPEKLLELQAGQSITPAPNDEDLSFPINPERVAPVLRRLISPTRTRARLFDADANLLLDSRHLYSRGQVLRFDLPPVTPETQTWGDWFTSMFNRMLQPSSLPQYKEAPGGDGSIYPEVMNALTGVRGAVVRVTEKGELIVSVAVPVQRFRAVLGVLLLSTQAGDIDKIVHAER

Target: periplasmic domain of ChvG (71-278 a.a.) (Agrobacterium tumefaciens) (UniProt Q07737)
Assay: two-hybrid; Matchmaker system (Clontech), S. cerevisiae AH109; ChvG periplasmic domain in pGBKT7, ExoR proteins fused to the activation domain in pGADT7; positive interaction read as growth on SD-WLHA medium at 30°C for at least 2 days

Substance: wild-type ExoR (from UniProt A0A822UYI5 1-264)
- binding: binds
